In article PMC8417825, “Light-Induced Dynamic Change of Phytochrome B and Cryptochrome 1 Stabilizes SINATs in Arabidopsis” (Frontiers in Plant Science, 2021):
No constants are given. Whether binding was seen depends on the method and setting. Binding calls can cover weak binding; strength is not graded here. Where a sequence is shown, tags or fusion partners need not be part of it. For some assays here: In cells and extracts the contact can be indirect.

Tests used:
[1] = target: T1, CRY1-C-GST (Arabidopsis thaliana) (UniProt Q43125); test: pull-down; in vitro pull-down: about 5 ug GST-tagged protein on glutathione resin, about 2 ug His-tagged protein added, 1 h at 4°C; washed with 1x PBS, 0.1% Triton X-100; anti-His blot; both purified
T1 sequence: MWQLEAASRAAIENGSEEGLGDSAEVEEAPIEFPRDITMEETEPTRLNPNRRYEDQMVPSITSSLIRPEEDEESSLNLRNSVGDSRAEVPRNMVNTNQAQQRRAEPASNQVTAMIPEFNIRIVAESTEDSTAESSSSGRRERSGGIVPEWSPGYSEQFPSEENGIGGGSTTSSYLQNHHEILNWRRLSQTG

[2] = target: T1, CRY1-C-GST (Arabidopsis thaliana); test: pull-down; semi-in vivo pull-down: GST fusion pre-incubated with GST beads at 4°C for 1 h, incubated with total protein extract of 2-week-old SINAT2-FLAG or SINAT5-FLAG plants (100 mM Tris-HCl pH 7.5, 300 mM NaCl, 2 mM EDTA, 1% Triton X-100, 10% glycerol, 50 uM MG132); washed with 1x PBS, 0.1% Triton X-100; anti-FLAG blot; only the target purified

| Substance | binding [1] | binding [2] |
| --- | --- | --- |
| SINAT5-His (Arabidopsis thaliana) | binds |  |
| SINAT5-FLAG (Arabidopsis thaliana) |  | binds |
